Literature values as cited in patent US8710062B2, “Piperazinedione compounds” (Taipei Medical University, priority 2011, dated 2014).

System: 60 Human Cancer Cell Lines (NCI-60)
Settings: data obtained from the NCI/DTP database (asterisk); cited from earlier work

For `Cc1ccc(NC(=O)c2ccc(CN3CCN(C)CC3)cc2)cc1Nc1nccc(-c2cccnc2)n1` [Gleevec], the pIC50 is given as 4.82.
